# Measured values as given in article PMC7862700.
# Sequences of proteins named here, by UniProt entry; tags and fusion partners are left off. A change or cut given only in a name is not applied to a line headed by its entry.
# UniProt Q01892: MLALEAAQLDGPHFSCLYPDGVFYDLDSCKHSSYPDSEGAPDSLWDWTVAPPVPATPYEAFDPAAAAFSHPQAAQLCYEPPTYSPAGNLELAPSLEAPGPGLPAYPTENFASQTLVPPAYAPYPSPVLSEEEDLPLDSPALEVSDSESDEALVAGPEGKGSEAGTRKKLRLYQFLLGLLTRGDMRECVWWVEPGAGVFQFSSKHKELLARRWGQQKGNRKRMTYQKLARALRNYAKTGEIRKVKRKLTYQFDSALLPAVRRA
# UniProt P41161: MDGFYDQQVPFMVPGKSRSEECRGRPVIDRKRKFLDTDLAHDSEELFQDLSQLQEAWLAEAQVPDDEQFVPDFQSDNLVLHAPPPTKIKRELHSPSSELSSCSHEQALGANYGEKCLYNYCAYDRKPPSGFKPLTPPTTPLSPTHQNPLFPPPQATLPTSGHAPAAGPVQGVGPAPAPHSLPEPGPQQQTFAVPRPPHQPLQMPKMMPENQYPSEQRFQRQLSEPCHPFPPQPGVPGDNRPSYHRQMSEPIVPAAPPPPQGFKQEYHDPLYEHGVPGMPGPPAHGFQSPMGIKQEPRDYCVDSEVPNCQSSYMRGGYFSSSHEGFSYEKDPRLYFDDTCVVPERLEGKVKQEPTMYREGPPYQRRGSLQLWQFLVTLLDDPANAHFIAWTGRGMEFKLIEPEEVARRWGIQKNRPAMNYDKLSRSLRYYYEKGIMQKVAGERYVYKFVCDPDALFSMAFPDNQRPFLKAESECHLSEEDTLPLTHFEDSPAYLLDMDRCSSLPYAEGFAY
# UniProt Q99607: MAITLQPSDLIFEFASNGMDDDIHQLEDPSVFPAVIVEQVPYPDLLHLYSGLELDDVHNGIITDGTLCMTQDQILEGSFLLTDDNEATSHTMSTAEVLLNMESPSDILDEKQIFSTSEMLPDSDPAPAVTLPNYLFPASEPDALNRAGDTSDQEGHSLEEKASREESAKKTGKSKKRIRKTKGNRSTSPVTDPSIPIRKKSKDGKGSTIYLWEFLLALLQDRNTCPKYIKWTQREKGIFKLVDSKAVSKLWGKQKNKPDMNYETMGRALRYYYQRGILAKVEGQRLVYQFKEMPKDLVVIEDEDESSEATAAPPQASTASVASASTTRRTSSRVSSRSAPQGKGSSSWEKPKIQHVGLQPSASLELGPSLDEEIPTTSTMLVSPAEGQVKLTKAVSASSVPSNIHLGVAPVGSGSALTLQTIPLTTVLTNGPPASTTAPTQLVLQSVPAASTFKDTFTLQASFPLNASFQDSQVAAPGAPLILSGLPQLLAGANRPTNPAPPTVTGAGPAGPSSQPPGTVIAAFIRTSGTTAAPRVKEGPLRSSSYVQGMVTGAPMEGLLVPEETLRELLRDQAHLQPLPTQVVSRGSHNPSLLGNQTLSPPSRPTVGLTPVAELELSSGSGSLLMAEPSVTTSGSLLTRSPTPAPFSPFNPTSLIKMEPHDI
# Only a part is listed here, and it is no random draw. At the low end of the ranking the order means little.
# Legend:
# Assay in all cases: DAPPL (digital affinity profiling via proximity ligation, sequencing)
# Settings in all cases: 10 mM Tris-HCl pH 7.5, 50 mM NaCl, 1 mM DTT, 4% glycerol, room temperature, 30 min; GST-TFs on glutathione beads, 16-mer random dsDNA library, 0.1% …; high values mean tight binding; double strand, one strand shown; scale: fold enrichment (6-mer frequency, TF over GST control)
# FLI1 = target: T1, FLI1 (UniProt Q01543)
# T1 sequence: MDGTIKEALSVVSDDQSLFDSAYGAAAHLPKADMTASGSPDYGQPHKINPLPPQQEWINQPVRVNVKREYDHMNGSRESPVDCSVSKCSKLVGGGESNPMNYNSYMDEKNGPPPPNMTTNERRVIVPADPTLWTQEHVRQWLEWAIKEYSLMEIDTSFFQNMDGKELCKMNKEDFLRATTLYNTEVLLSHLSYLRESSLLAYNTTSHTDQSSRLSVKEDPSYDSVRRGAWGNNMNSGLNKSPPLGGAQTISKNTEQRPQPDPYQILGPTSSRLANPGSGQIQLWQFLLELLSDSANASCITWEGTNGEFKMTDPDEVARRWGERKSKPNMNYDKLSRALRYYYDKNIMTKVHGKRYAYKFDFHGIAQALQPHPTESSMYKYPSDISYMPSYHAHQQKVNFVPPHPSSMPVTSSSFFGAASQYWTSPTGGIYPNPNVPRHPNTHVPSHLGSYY
# EHF = target: T2, EHF (UniProt Q9NZC4)
# T2 sequence: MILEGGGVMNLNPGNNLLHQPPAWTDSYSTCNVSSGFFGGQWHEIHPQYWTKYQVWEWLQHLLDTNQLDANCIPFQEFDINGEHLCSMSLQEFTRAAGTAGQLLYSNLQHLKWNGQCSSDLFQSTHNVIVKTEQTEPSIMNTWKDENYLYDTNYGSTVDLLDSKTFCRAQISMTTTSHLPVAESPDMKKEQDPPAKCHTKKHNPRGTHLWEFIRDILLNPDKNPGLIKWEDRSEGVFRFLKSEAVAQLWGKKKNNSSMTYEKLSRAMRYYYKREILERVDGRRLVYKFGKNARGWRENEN
# SPIB = SPIB (UniProt Q01892)
# ETV5 = ETV5 (UniProt P41161)
# ELF4 = ELF4 (UniProt Q99607)
# ETV3L = target: T3, ETV3L (UniProt Q6ZN32)
# T3 sequence: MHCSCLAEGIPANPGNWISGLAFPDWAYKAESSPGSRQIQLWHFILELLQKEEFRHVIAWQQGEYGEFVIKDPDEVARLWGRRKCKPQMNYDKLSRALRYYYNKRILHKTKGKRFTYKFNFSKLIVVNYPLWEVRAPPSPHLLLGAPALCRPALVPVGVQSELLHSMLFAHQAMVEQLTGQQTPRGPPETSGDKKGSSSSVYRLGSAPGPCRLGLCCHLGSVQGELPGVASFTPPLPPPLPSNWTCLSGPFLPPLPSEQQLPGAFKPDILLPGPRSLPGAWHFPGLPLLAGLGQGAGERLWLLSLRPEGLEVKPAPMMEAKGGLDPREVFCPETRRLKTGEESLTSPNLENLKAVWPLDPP
sequence,measurement,setting,value
ACTGTC,binding signal,FLI1,1.02
same,binding signal,EHF,0.947
same,binding signal,SPIB,1.05
same,binding signal,ETV5,0.985
same,binding signal,ELF4,0.946
same,binding signal,ETV3L,0.924
TTGGGA,binding signal,FLI1,0.927
same,binding signal,EHF,0.842
same,binding signal,SPIB,0.905
same,binding signal,ETV5,0.977
same,binding signal,ELF4,0.903
same,binding signal,ETV3L,0.843
GGTTCT,binding signal,FLI1,1.07
same,binding signal,EHF,0.94
same,binding signal,SPIB,1.05
same,binding signal,ETV5,0.981
same,binding signal,ELF4,0.993
GATTGC,binding signal,FLI1,0.892
same,binding signal,SPIB,1.05
same,binding signal,ETV5,0.996
same,binding signal,ELF4,0.986
same,binding signal,ETV3L,1.02
GGCATT,binding signal,FLI1,1.08
same,binding signal,SPIB,0.974
same,binding signal,ETV5,1.05
same,binding signal,ELF4,0.981
GGCCTG,binding signal,FLI1,0.945
same,binding signal,EHF,0.783
same,binding signal,SPIB,0.982
same,binding signal,ETV5,0.882
same,binding signal,ELF4,0.912
GATACC,binding signal,FLI1,0.889
same,binding signal,SPIB,0.924
same,binding signal,ETV5,0.944
same,binding signal,ELF4,0.957
same,binding signal,ETV3L,0.937
ACCCGT,binding signal,FLI1,0.823
same,binding signal,EHF,0.934
same,binding signal,SPIB,0.885
same,binding signal,ETV5,0.91
same,binding signal,ELF4,0.86
same,binding signal,ETV3L,0.878
GGCTTT,binding signal,SPIB,0.934
same,binding signal,ELF4,0.976
GAATGG,binding signal,SPIB,1.06
same,binding signal,ELF4,0.94

# 4 neighbouring records from above, quoted:
sequence,measurement,setting,value
ACTGTC,binding signal,ELF4,0.946
same,binding signal,ETV3L,0.924
TTGGGA,binding signal,FLI1,0.927
same,binding signal,EHF,0.842
